Source: US10350255B2, “Polygonum cuspidatum extracts” (priority 2015, dated 2019)
Some entries share one result that the patent states for a list of compounds.

Tested on: S. aureus
Test: Agar diffusion test (TSA, bored hole / paper disk), dark vs light
Type: cell-based, Staphylococcus aureus
Conditions: light-activated; extract 40 μg, components at their proportions found in the extract

SMILES	Inhibition zone, S. aureus, Light
Cc1cc(O)c2c(c1)C(=O)c1cc(O)cc(O)c1C2=O [Emodin]	8-9 mm
COc1cc(O)c2c(c1)C(=O)c1cc(C)cc(O)c1C2=O [Physcion]	8-9 mm
